For at least one compound, name, drawing or mass did not settle the structure.
Experiment: conversion factors for progestogens: amount equivalent to a given amount of levonorgestrel
Details: relative to levonorgestrel; for guidance, estimate
Description: In order to determine for a specific biogenic estrogen or synthetic estrogen the amounts that are equivalent to a cited amount of ethinyl estradiol or 17beta-estradiol, the method described by Allen and Doisy may suitably be used (Allen A., Doisy E. A., “An ovarian hormone. Preliminary report on its localization, extraction and partial purification, and action in test animals. JAMA (1923), 81, 819-821). Similarly, in order to determine for a given progestogen the amount equivalent to cited amount of levonorgestrel the method originally described by McPhail can be used (Mc Phail M. K. “The assay of progestin” J Physiol (1934), 83, 145-156). A more recent description of this method can be found in an article written by Overbeek G. A., de Visser J. “A new substance with progestational activity”, Acta Endocrinol (1956), 22, 318-329. It is noted that the aforementioned methods will provide useful indications about the anticipated estrogen potency or progestogen potency of a particular hormone. However, to accurately determine the equivalent amounts that are referred to above, it is advisable to additionally conduct in vivo studies in human females.
For guidance the table below provides the conversion factors for a number of progestogens that may suitably be used in the method of the invention. […]

Structure (SMILES): C#C[C@]1(O)CC[C@H]2[C@@H]3CCC4=CC(=O)CC[C@@H]4[C@H]3CC[C@@]21CC [levonorgestrel]
- Conversion factor: 1

Source: US20040242550A1, “Means and method for hormonal contraception” (priority 2001, published 2004)
